Measurements as given in paper PMC8729806.
Results are given in words; binding and its absence hold for the method and conditions named. Some binding calls cover weakened binding; strength is not graded here.

Target: CsgA from E. coli (residues 21-151), without its signal sequence (E. coli), P28307
Test: SPR; Biacore 2000; freshly desalted CsgA and FapC immobilised on a CM5 chip by amine coupling; running buffer 10 mM HEPES pH 7.4, 150 mM NaCl, 3 mM EDTA, 0.05% BSA; chaperones injected in serial dilutions (DNAJB6, Bri and CsgC 10-2000 nM; S100A9, TTR and MTTR 5-70 μM) at 20 μl/min; 1:1 binding …; both purified
Conditions: remark: other sources report otherwise

binding: binds
B1: CsgC, P52107 9-110 (protein)
chain: ALSSQITFNTTQQGDVYTIIPEVTLTQSCLCRVQILSLREGSSGQSQTKQEKTLSLPANQPIALTKLSLNISPDDRVKIVVTVSDGQSLHLSQQWPPSSEKS
modifications: here or on the partner: Alexa Fluor 546 label (peptide array only)
